According to the supplement of paper PMC10849652:
The list shows a part of the results.

Protein sequences, listed by entry. Tags and fused reporters are not part of them. Lines headed by an entry give the natural chain unless they say otherwise; changes in a name come on top.
UniProt O00571: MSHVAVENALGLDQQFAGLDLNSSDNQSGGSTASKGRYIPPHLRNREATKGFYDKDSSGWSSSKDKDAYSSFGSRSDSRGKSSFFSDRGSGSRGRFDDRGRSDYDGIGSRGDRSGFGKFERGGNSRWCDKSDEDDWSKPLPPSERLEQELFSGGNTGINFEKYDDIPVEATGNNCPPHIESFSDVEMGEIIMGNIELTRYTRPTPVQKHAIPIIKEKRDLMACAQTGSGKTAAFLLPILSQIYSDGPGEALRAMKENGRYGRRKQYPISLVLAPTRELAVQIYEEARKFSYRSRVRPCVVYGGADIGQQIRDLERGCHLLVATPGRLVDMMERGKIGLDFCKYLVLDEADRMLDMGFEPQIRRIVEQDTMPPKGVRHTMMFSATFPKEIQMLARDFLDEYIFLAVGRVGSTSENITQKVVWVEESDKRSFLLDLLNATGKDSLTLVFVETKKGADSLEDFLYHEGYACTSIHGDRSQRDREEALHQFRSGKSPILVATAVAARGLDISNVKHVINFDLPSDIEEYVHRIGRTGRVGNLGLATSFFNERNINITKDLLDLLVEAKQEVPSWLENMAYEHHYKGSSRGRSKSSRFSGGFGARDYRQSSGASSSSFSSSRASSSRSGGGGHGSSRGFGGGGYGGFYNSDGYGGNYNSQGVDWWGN
UniProt P26196: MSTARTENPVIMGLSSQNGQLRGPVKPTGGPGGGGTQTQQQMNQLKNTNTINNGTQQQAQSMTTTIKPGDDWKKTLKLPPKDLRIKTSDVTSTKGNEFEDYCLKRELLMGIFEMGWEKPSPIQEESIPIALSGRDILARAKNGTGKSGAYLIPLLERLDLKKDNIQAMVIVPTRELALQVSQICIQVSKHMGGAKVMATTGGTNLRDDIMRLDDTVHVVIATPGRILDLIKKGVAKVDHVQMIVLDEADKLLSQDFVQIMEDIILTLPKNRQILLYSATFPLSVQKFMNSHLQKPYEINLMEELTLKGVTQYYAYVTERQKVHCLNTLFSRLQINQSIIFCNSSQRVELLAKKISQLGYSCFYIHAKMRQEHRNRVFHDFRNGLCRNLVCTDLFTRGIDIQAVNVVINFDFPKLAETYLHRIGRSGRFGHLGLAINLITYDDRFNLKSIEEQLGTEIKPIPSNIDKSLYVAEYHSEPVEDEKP
UniProt Q07973: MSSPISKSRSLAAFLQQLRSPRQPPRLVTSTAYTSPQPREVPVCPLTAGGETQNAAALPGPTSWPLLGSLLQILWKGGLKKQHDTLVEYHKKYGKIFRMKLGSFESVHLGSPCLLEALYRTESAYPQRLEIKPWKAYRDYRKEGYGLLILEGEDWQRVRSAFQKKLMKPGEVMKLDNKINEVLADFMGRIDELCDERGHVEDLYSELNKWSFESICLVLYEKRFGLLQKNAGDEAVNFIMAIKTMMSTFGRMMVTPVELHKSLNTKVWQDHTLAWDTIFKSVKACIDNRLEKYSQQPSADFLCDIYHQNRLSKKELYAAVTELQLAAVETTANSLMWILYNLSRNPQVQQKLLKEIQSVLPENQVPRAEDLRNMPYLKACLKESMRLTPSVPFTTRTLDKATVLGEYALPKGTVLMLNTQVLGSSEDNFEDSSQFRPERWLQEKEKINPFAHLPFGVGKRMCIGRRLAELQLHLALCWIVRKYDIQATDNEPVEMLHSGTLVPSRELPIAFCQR
UniProt Q6P3S1: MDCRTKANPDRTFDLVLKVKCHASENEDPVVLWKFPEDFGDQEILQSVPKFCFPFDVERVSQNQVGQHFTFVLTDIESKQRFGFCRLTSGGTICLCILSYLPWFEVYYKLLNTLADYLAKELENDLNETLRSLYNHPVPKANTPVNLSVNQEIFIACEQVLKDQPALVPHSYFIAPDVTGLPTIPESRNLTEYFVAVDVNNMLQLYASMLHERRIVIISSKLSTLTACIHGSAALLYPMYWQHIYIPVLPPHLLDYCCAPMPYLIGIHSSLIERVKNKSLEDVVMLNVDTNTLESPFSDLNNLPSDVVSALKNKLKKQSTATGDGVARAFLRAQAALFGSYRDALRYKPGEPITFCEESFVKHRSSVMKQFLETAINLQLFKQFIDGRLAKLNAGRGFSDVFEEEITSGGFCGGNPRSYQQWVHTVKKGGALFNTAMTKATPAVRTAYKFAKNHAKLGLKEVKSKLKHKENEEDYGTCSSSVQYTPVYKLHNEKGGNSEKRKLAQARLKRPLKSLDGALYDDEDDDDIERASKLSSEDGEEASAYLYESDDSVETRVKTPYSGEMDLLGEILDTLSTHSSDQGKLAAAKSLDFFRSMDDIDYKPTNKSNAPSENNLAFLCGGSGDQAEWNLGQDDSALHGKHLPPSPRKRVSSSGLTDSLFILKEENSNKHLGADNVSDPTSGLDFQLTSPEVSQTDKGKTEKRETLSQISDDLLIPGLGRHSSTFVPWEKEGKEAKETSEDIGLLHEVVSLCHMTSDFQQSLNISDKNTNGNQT
UniProt P32321: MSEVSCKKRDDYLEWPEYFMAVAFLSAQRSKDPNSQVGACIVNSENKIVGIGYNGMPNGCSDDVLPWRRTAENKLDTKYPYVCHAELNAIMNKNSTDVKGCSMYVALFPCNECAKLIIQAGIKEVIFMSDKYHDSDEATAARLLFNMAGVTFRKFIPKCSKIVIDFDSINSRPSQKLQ
UniProt Q9H8H2: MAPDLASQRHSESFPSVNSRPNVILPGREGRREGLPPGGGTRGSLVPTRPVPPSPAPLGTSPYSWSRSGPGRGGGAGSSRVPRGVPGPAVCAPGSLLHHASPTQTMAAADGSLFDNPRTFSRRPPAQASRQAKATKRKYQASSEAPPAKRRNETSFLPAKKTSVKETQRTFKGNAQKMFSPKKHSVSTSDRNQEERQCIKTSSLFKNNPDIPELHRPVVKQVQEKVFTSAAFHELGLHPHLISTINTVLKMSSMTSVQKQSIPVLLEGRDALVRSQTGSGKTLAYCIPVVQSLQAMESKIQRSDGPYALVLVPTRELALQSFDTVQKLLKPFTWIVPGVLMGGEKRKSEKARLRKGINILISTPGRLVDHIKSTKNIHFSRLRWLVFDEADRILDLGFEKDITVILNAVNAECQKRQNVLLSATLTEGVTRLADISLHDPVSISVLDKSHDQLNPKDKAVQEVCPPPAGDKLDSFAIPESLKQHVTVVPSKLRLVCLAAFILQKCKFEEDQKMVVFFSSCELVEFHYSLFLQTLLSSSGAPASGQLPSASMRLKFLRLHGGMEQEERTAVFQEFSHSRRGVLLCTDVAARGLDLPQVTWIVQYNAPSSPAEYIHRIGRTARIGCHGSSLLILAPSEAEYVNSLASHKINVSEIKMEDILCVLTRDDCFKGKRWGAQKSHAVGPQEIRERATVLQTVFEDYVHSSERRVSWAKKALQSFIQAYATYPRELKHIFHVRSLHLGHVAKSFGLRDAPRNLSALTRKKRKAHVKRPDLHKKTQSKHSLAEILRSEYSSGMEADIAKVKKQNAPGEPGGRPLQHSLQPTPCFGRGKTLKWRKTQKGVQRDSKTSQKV
UniProt O43583: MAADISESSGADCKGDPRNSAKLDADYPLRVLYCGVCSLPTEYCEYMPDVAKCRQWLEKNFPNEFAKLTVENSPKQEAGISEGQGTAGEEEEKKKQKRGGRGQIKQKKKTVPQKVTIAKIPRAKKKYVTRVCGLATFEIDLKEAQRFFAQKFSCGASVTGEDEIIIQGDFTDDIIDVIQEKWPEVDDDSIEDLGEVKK
UniProt P17844: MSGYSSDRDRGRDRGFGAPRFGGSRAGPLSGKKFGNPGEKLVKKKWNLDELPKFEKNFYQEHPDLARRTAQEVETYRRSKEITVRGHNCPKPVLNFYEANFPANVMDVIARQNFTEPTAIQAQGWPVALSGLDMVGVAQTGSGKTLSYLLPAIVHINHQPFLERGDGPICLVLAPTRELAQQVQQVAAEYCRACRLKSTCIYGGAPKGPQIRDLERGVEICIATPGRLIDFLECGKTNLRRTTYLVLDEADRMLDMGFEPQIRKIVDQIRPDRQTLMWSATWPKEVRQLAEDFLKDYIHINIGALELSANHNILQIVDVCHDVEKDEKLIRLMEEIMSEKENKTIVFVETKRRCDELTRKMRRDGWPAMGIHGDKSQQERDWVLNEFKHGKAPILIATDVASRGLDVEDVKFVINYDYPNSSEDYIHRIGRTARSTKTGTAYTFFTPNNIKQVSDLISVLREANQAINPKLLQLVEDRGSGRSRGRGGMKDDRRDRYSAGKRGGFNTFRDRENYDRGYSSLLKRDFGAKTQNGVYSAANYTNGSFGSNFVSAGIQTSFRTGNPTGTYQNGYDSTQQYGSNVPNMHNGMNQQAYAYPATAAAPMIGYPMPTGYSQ
UniProt Q9NY93: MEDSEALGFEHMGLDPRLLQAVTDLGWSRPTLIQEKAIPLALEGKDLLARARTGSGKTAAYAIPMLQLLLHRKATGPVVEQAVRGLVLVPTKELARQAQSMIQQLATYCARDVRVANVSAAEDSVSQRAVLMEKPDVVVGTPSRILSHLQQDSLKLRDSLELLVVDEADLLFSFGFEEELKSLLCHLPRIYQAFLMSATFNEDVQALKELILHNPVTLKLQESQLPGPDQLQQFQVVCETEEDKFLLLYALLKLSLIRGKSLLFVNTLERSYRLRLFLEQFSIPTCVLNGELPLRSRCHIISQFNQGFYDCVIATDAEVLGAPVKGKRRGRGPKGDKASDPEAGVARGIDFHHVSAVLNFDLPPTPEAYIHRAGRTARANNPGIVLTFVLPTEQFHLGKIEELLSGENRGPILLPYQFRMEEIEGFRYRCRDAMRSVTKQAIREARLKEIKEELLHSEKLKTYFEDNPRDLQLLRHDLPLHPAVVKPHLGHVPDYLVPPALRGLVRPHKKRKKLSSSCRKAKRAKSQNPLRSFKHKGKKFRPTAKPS
UniProt Q96GG9: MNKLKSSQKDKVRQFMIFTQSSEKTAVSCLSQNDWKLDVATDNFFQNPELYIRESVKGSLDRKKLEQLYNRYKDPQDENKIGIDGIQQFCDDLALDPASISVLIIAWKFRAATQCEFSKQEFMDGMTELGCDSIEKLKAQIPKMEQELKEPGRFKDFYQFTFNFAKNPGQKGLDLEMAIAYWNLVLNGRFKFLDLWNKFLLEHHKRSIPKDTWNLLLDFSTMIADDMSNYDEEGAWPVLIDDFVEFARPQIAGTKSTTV
UniProt Q8N465: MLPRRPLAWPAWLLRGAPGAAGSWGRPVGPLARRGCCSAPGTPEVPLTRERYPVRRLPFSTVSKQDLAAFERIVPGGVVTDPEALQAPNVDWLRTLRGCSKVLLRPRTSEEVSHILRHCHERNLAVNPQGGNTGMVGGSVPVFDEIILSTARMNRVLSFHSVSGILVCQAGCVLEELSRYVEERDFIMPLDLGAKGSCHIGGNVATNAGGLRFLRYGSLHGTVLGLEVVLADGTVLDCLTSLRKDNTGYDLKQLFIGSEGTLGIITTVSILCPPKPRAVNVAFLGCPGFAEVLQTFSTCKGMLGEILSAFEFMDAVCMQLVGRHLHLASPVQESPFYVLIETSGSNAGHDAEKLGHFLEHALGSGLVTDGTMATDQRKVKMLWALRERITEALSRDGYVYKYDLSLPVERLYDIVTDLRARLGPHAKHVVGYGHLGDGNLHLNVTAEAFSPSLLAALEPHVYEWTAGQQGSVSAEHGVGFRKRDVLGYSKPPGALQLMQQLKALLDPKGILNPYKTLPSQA
UniProt P30046: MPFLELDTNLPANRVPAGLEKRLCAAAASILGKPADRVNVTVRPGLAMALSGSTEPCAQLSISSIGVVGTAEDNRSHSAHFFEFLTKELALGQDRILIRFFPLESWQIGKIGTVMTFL
UniProt P07108: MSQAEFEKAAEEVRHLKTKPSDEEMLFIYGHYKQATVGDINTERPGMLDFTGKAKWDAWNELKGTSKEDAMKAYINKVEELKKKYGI
UniProt Q9NPI6: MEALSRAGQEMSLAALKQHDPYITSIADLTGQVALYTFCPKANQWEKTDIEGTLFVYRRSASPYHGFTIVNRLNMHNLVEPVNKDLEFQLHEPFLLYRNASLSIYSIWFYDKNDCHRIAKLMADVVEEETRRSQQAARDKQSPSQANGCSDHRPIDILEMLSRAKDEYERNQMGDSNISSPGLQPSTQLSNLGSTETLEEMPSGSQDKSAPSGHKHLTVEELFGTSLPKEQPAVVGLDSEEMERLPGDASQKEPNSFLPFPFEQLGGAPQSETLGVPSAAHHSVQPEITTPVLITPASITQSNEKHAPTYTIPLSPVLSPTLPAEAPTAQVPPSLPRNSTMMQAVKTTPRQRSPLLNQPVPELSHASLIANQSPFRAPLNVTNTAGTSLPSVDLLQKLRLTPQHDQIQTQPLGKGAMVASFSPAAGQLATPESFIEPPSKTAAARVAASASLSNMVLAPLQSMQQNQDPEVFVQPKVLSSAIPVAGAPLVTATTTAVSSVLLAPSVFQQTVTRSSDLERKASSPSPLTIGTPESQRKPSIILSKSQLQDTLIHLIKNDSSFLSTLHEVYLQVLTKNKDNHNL
UniProt O75935, whole entry, looked up: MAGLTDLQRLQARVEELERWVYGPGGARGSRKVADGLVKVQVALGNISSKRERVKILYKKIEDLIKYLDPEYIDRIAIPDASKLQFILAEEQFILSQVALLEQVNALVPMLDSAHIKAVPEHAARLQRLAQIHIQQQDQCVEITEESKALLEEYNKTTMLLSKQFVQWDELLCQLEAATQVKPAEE

Compound: C1=CC=C(C=C1)[C@H](COC2=CC3=C(C=C2)NC(=O)N3)NC(=O)C4=CC=CN(C4=O)CC5=CC(=C(C=C5)F)F
Experiment: log2 fold change, soluble protein after heating vs DMSO (PISA); higher = thermal stabilisation; K562 lysate, 10 uM; active = over 0.2 and 3.5 SD of the protein, either way, in both replicates (recomputed)
Procedure, shortened: (§1)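 The values are log-two fold changes in thermal stability compared with solvent controls and come from duplicates. They were obtained by TMTpro 16plex LC-MS/MS, with channel sums equalised, on the supernatant after 21,000xg for 90 min. That supernatant came from crude K562 extract at 1 mg/mL protein treated with 10 μM compound for 30 min, heated for 3 min across 48°C-58°C, pooled and brought to 0.5% NP-40 at 4°C.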

| Target | log2 fold change |
| --- | --- |
| DDX3X (UniProt O00571) | inactive: 0.004 |
| DDX6 (UniProt P26196) | inactive: 0.012 |
| CYP24A1 (UniProt Q07973) | inactive: 0.02 |
| DENND1B (UniProt Q6P3S1) | inactive: 0.154 |
| DCTD isoform 2 (UniProt P32321) | inactive: -0.013 |
| DDX31 (UniProt Q9H8H2) | inactive: 0.008 |
| DENR (UniProt O43583) | inactive: 0.003 |
| DDX5 (UniProt P17844) | inactive: 0.037 |
| DDX56 (UniProt Q9NY93) | inactive: -0.028 |
| DCUN1D1 (UniProt Q96GG9) | inactive: -0.01 |
| D2HGDH (UniProt Q8N465) | inactive: 0.004 |
| DDX46, A0A0C4DG89 | inactive: -0.148 |
| DDT (UniProt P30046) | inactive: 0.006 |
| DBI isoform 5 (UniProt P07108) | inactive: 0.069 |
| DCP1A (UniProt Q9NPI6) | inactive: -0.011 |

Compound: CC1=C(SC2=C1C(=N[C@H](C3=NN=C(N32)C)CC(=O)N)C4=CC=C(C=C4)Cl)C
Experiment: as above
Procedure, shortened: as §1

| Target | log2 fold change |
| --- | --- |
| DDX19A (UniProt Q9NUU7) | inactive: 0.028 |
| DERPC (UniProt P0CG12) | inactive: -0.237 |
| DCTN2 isoform 3 (UniProt Q13561) | inactive: -0.063 |
| DEPDC5 (UniProt O75140) | inactive: -0.085 |
| DERL1 (UniProt Q9BUN8) | inactive: 0 |
| DCAF6 isoform 3 (UniProt Q58WW2) | inactive: 0.009 |
| DFFA isoform 2 (UniProt O00273) | inactive: 0.165 |
| DDX10 (UniProt Q13206) | inactive: -0.081 |
| DDX59 (UniProt Q5T1V6) | inactive: 0.024 |
| DCTPP1 (UniProt Q9H773) | inactive: -0.019 |
| DCTN4 (UniProt Q9UJW0) | inactive: -0.026 |
| DCTN3 (UniProt O75935) | inactive: -0.024 |
| DDX1 (UniProt Q92499) | inactive: 0.024 |
| DCAF16 (UniProt Q9NXF7) | inactive: 0.001 |
| DEK (UniProt P35659) | inactive: 0.011 |
| DCPS (UniProt Q96C86) | inactive: 0.008 |
| DBR1 (UniProt Q9UK59) | inactive: 0.018 |
| DCP2 (UniProt Q8IU60) | inactive: -0.001 |
| DDX17 (UniProt Q92841) | inactive: 0.024 |
| DDRGK1 (UniProt Q96HY6) | inactive: -0.007 |

| Target | log2 fold change |
| --- | --- |
| DARS (UniProt P14868) | inactive: 0.001 |
| DDX4 (UniProt Q9NQI0) | inactive: 0.007 |
| DCXR (UniProt Q7Z4W1) | inactive: 0.009 |
| DAP3 (UniProt P51398) | inactive: 0.023 |
| DDX3X (UniProt O00571) | inactive: -0.034 |
| DDX6 (UniProt P26196) | inactive: 0.011 |
| CYP24A1 (UniProt Q07973) | inactive: 0.142 |
| DENND1B (UniProt Q6P3S1) | inactive: -0.205 |
| DCTD isoform 2 (UniProt P32321) | inactive: 0.012 |
| DDX31 (UniProt Q9H8H2) | inactive: -0.08 |
| DENR (UniProt O43583) | inactive: -0.001 |
| DDX5 (UniProt P17844) | inactive: -0.024 |
| DDX56 (UniProt Q9NY93) | inactive: 0.021 |
| DCUN1D1 (UniProt Q96GG9) | inactive: 0.021 |
| D2HGDH (UniProt Q8N465) | inactive: 0.023 |
| DDX46, A0A0C4DG89 | inactive: 0.067 |
| DDT (UniProt P30046) | inactive: -0.056 |
| DBI isoform 5 (UniProt P07108) | inactive: -0.046 |
| DCP1A (UniProt Q9NPI6) | inactive: -0.031 |

Compound: CC1=C2C(=CC=C1)N=C(N(C2=O)C3=CC=CC=C3C)CN4C=NC5=C(N=CN=C54)N
Experiment: as above
Procedure, shortened: as §1

| Target | log2 fold change |
| --- | --- |
| DDX19A (UniProt Q9NUU7) | inactive: -0.006 |
| DERPC (UniProt P0CG12) | inactive: 0.046 |
| DCTN2 isoform 3 (UniProt Q13561) | inactive: -0.006 |
| DEPDC5 (UniProt O75140) | inactive: 0.05 |
| DERL1 (UniProt Q9BUN8) | inactive: 0.04 |
| DCAF6 isoform 3 (UniProt Q58WW2) | inactive: 0.035 |
| DFFA isoform 2 (UniProt O00273) | inactive: -0.33 |
| DDX10 (UniProt Q13206) | inactive: -0.017 |
| DDX59 (UniProt Q5T1V6) | inactive: 0.025 |
| DCTPP1 (UniProt Q9H773) | inactive: -0.065 |
| DCTN4 (UniProt Q9UJW0) | inactive: 0.037 |
| DCTN3 (UniProt O75935) | inactive: 0.031 |
| DDX1 (UniProt Q92499) | inactive: 0.007 |
| DCAF16 (UniProt Q9NXF7) | inactive: -0.052 |
| DEK (UniProt P35659) | inactive: 0.033 |
| DCPS (UniProt Q96C86) | inactive: -0.009 |
| DBR1 (UniProt Q9UK59) | inactive: -0.037 |
| DCP2 (UniProt Q8IU60) | inactive: 0.041 |
| DDX17 (UniProt Q92841) | inactive: 0.019 |
| DDRGK1 (UniProt Q96HY6) | inactive: 0.009 |

| Target | log2 fold change |
| --- | --- |
| DARS (UniProt P14868) | inactive: 0.037 |
| DDX4 (UniProt Q9NQI0) | inactive: -0.004 |
| DCXR (UniProt Q7Z4W1) | inactive: -0.012 |
| DAP3 (UniProt P51398) | inactive: 0.003 |
| DDX3X (UniProt O00571) | inactive: 0.148 |
| DDX6 (UniProt P26196) | inactive: 0.002 |
| CYP24A1 (UniProt Q07973) | inactive: 0.096 |
| DENND1B (UniProt Q6P3S1) | inactive: -0.062 |
| DCTD isoform 2 (UniProt P32321) | inactive: 0.004 |
| DDX31 (UniProt Q9H8H2) | inactive: -0.059 |
| DENR (UniProt O43583) | inactive: 0.006 |
| DDX5 (UniProt P17844) | inactive: 0.013 |
| DDX56 (UniProt Q9NY93) | inactive: 0.041 |
| DCUN1D1 (UniProt Q96GG9) | inactive: 0.017 |
| D2HGDH (UniProt Q8N465) | inactive: 0.074 |
| DDX46, A0A0C4DG89 | inactive: -0.054 |
| DDT (UniProt P30046) | inactive: -0.013 |
| DBI isoform 5 (UniProt P07108) | inactive: -0.035 |
| DCP1A (UniProt Q9NPI6) | inactive: 0.025 |
